Reference: PubChem BioAssay AID540276 (National Center for Advancing Translational Sciences (NCATS), 2011)
Among all 300,000 compounds or so, about 5,400 (1.8%) were called active. This list was built around the results that the source calls inconclusive (neither active nor inactive); the mix of calls is not that of the screen. The call rests on the fitted dose curve; tested in HEK293 cells. Where the call is inconclusive, the potency comes from a doubtful curve fit.
On the % scale 0 is the no-effect control and ±100 the full control effect; potency means the concentration at half of the fitted maximal effect.

Test: qHTS for inhibitors of binding or entry into cells for Marburg Virus
Conditions: Marburg virus pseudotyped entry inhibition, cell reporter; activity change, negative = inhibition: at 37.8 µM (top of the series) unless noted
With `O=C(Nc1ccc(F)c(F)c1)C1CCN(S(=O)(=O)c2cccs2)CC1` the Potency was inconclusive: 22.4 µM [inhibitor, single point]. For `CCN1CN(Cc2ccco2)CNC1=S`, the “activity change, negative = inhibition” value was inactive: 22.7%. With `CN(C)C(CNC(=O)c1ccc(NS(=O)(=O)c2ccc(F)c(F)c2)cc1)c1ccccc1` (configuration not stated) the Potency was inconclusive: 1 µM [inhibitor, single point]. For `COc1cccc(C(=O)N2CCN(C(=O)c3cccc(F)c3)CC2)c1`, the Potency was inconclusive: 1.26 µM [inhibitor, single point]. For `Cc1ccc(S(=O)(=O)N(CCCO)CC(O)CON=C2c3ccccc3-c3ccccc32)cc1` (configuration not stated), the Potency was inconclusive: 11.2 µM [inhibitor, partial curve, poor fit]. With `CN(C(=O)COC(=O)/C=C/c1cccs1)C1CCCCC1` the Potency was inconclusive: 14.1 µM [activator, partial curve, poor fit]. In the case of `NS(=O)(=O)c1ccc(NC(=S)Nc2cc(Cl)c(Cl)cc2Cl)cc1`, the Potency was inconclusive: 23.1 µM [activator, single point]. For `O=C(Cc1cccs1)NCc1ccccc1`, the Potency was inconclusive: 2.91 µM [activator, partial curve, poor fit]. With `CN(C)CC(O)COC(c1ccccc1)c1ccccc1` (configuration not stated) the Potency was inconclusive: 14.6 µM [inhibitor, partial curve]. For `COc1ccc(C(=O)OCCN2CCOCC2)cc1OC`, the Potency was inconclusive: 3.55 µM [activator, full curve, poor fit]. In the case of `CC(C)(C)n1nnnc1CN(Cc1ccco1)Cc1cc2cc3c(cc2[nH]c1=O)OCO3`, the “activity change, negative = inhibition” value was inactive: -2.63%. With `O=C(c1ccc2ccccc2c1)C1CCCN(C(=O)c2cccnc2)C1` (configuration not stated) the “activity change, negative = inhibition” value was inactive: 2.46%. For `O=C1/C(=C/c2ccccc2)CCc2ccc(Cl)nc21`, the Potency was inconclusive: 15.8 µM [inhibitor, single point]. With `COCCN(C(=S)Nc1cccc(OC)c1)C(C)c1cccs1` (configuration not stated) the Potency was inconclusive: 35.5 µM [activator, partial curve, poor fit]. In the case of `COc1cc(NC(=O)CSCc2cnn(-c3ccccc3)c2-n2cccc2)cc(OC)c1`, the Potency was inconclusive: 22.4 µM [inhibitor, single point]. With `CCc1ccc(OCC(=O)N/N=C(\C)c2ccc3c(c2)OCCO3)cc1` the Potency was inconclusive: 8.91 µM [activator, partial curve, poor fit]. For `Cc1ccc(NC(=O)CSc2nc(N)cc(=O)[nH]2)cc1S(=O)(=O)N1CCOCC1`, the Potency was inconclusive: 1.78 µM [inhibitor, single point]. For `Cc1cc(NCCCN(C)C)n2c(nc3ccccc32)c1C#N`, the “activity change, negative = inhibition” value was inactive: -17%. With `O=C(NCC(=O)N(CC1CCCO1)C(C(=O)NC1CCCCC1)c1ccc(F)cc1)c1ccco1` (configuration not stated) the activity change, negative = inhibition was inconclusive: 5.89% [activator] [at 46.1 µM]. In the case of `CCc1nc(SCC(=O)N2c3ccccc3CC2C)c2c(C)c(C)sc2n1` (configuration not stated), the Potency was active: 0.92 µM. For `CCCOC(=O)CC1C(=O)NCCN1C(=O)OC(C)(C)C` (configuration not stated), the “activity change, negative = inhibition” value was inactive: -9.85% [at 46.1 µM]. In the case of `O=C(/C=C\Nc1ccc(S(=O)(=O)Nc2ncccn2)cc1)c1ccccc1`, the Potency was inconclusive: 1.58 µM [activator, partial curve, poor fit]. For `CC(C)(C)C1CCC(=NNC(=O)C(=O)NCc2ccco2)CC1` (configuration not stated), the “activity change, negative = inhibition” value was inactive: 7.93%. In the case of `CC(O)/C=C/c1cccc[n+]1C` (configuration not stated), the Potency was inconclusive: 29.1 µM [activator, single point]. With `COc1cc(Cn2c(-c3ccc(O)c(OC)c3)nc3ccccc32)ccc1O` the Potency was inconclusive: 20 µM [inhibitor, single point]. For `CCn1ccc(C(=O)Nc2ccc(N(C)C(C)=O)cc2)n1`, the Potency was inconclusive: 8.91 µM [activator, partial curve, poor fit]. With `O=C1CCCC(O)=C1N=Nc1ccc2c(c1)OCO2` the Potency was inconclusive: 20 µM [inhibitor, single point]. In the case of `Cc1ccc2cc3cc(C(=O)N4CCN(C(=O)c5ccco5)CC4)sc3nc2c1`, the “activity change, negative = inhibition” value was inactive: -3.97% [at 46.1 µM]. For `COc1cccc(CN(CC(=O)NCc2ccco2)C(=O)CNS(=O)(=O)c2ccccc2)c1`, the “activity change, negative = inhibition” value was inactive: -26% [at 46.1 µM]. In the case of `COc1ccc(-c2c(C)nn3c4c(cnc23)C(=O)CC(c2ccc(C)cc2)C4)cc1` (configuration not stated), the Potency was inconclusive: 1 µM [inhibitor, full curve, poor fit]. With `COc1ccc(C(=O)n2cc(C(=O)c3cc(C)ccc3O)cn2)cc1OC` the “activity change, negative = inhibition” value was inactive: -6.54%. With `CCOc1cc(-c2ccccc2)nc(N)n1` the Potency was inconclusive: 5.17 µM [activator, partial curve, poor fit]. With `Cc1ccc(CSCC(=O)N2CCN(Cc3ccc4c(c3)OCO4)CC2)cc1` the Potency was inconclusive: 22.4 µM [inhibitor, partial curve, poor fit]. For `CCOc1cc(N2CCOCC2)c(OCC)cc1NCC(=O)N1CCN(Cc2ccccc2)CC1`, the Potency was inconclusive: 14.6 µM [inhibitor, partial curve, poor fit]. In the case of `CCN(CC(=O)NCc1cccs1)C(=O)c1cccc(S(=O)(=O)Nc2ccc(OC)cc2)c1`, the Potency was inconclusive: 35.5 µM [inhibitor, single point]. With `Cc1nonc1N1CCN(Cc2cn[nH]c2-c2ccc3c(c2)OCO3)CC1` the “activity change, negative = inhibition” value was inactive: 10.2% [at 46.1 µM]. In the case of `O=C(/C=C/c1ccc2c(c1)OCO2)Nc1nc2ccccc2s1`, the Potency was inconclusive: 0.112 µM [activator, full curve, poor fit]. With `O=S(=O)(c1ccccc1)N1CCN(c2ncnc3scc(-c4ccccc4)c23)CC1` the Potency was inconclusive: 6.31 µM [inhibitor, partial curve, poor fit]. With `CC(C)CC(c1nnnn1Cc1ccco1)N1CCN(c2cccc(Cl)c2)CC1` (configuration not stated) the Potency was active: 8.91 µM. For `NC(=O)CS(=O)(=O)c1nc2ccccc2n1CC(=O)N1CCCCC1`, the Potency was inconclusive: 5.8 µM [inhibitor, partial curve, poor fit]. In the case of `CC(C)Oc1ccc(C(=O)/C(=C\c2cccs2)c2nc3ccccc3o2)cc1`, the Potency was inconclusive: 11.2 µM [inhibitor, partial curve, poor fit]. For `Cc1ccc(NS(=O)(=O)c2ccc(OCC(=O)Nc3cccc([N+](=O)[O-])c3)c(C)c2)cc1`, the Potency was inconclusive: 5.17 µM [inhibitor, single point].
